This passage reports binding results from paper PMC10646254.

The chains behind the UniProt entries cited, without tags or fusion partners.
UniProt P28482: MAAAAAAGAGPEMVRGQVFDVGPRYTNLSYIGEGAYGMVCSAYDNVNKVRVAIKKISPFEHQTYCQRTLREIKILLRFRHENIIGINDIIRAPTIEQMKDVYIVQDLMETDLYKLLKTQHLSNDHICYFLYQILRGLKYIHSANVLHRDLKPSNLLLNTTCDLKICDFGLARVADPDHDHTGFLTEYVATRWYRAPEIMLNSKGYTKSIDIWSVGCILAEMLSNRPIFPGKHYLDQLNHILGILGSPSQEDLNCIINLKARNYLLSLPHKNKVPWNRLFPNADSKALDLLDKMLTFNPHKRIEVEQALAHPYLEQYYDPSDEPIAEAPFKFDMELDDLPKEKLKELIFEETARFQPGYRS
UniProt P08047: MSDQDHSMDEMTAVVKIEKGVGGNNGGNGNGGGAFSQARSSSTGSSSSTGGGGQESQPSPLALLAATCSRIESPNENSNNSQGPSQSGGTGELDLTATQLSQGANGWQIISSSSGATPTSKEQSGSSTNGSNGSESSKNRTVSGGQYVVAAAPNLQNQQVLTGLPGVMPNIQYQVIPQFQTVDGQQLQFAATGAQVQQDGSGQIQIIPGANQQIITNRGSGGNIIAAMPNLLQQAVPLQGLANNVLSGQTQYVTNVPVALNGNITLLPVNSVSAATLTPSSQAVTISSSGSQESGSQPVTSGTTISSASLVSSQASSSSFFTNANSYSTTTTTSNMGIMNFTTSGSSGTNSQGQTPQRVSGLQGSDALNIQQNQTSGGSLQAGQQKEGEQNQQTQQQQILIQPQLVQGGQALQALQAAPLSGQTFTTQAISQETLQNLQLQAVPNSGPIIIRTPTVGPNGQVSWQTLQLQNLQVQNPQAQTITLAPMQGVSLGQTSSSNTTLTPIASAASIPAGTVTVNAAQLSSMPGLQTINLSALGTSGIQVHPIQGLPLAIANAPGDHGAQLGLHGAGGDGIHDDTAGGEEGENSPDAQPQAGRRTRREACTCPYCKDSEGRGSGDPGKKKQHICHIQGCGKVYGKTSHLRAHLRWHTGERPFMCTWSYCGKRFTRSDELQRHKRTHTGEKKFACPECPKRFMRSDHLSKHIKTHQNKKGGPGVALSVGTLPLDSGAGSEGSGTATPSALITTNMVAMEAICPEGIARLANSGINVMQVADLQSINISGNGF
UniProt Q02447: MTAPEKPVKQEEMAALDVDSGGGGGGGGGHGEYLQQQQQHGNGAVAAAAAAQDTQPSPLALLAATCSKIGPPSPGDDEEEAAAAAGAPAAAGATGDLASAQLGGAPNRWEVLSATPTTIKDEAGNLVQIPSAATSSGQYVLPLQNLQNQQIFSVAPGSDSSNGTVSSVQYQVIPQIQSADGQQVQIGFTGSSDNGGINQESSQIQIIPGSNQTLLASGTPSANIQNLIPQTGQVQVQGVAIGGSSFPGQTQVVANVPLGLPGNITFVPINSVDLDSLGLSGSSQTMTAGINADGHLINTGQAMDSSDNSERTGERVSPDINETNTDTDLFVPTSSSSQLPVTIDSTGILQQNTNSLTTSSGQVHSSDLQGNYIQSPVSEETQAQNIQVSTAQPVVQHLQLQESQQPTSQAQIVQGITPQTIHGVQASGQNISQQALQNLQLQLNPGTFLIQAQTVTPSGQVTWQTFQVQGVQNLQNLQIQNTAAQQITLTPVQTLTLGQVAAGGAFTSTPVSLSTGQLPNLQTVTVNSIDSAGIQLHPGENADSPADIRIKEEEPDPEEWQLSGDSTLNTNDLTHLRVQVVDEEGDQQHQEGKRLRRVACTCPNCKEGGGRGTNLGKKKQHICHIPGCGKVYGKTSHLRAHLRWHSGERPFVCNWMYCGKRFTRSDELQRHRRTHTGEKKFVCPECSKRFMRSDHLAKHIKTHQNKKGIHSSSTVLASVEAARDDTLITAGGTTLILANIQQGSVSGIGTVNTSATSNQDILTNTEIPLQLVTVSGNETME

These are yes or no findings as the source states them, for the method shown. Binding seen in cells or lysates may run through a third protein. A yes stands for co-enrichment or nearness to the bait. Other partners may have been found. Sequences can lack the tags named with a protein.

The target in the assay is T1, FLAG-tagged ELK4 (wild type) (human) (UniProt P28324).
T1 sequence: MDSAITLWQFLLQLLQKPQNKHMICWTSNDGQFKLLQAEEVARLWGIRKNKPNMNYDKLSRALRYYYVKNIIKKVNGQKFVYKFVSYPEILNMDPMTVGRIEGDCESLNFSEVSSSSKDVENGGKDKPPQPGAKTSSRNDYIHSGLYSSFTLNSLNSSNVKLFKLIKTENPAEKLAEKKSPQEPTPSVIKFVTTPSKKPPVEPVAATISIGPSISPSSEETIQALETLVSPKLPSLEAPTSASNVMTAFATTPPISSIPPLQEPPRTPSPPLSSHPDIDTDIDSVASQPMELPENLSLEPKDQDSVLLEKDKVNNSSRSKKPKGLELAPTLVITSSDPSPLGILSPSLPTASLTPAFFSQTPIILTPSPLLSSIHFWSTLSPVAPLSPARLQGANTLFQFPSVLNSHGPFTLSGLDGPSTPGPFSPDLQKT
Briefly: affinity purification with mass spectrometry; cells transfected with Flag-ELK4 or empty vector for 48 h, co-IP with anti-Flag antibody, SDS-PAGE, mass spectrometry.
Consider “ERK2 (from UniProt P28482 1-360) (enzyme)”, for which the binding result was “binds”. For the substance “endogenous SP1 (from UniProt P08047 1-785)”, the binding entry was “binds”. Then “endogenous SP3 (from UniProt Q02447 1-781)”, with “binds”.
